The test has as its target T1, FLAG-Sting (UniProt Q3TBT3).
T1 sequence: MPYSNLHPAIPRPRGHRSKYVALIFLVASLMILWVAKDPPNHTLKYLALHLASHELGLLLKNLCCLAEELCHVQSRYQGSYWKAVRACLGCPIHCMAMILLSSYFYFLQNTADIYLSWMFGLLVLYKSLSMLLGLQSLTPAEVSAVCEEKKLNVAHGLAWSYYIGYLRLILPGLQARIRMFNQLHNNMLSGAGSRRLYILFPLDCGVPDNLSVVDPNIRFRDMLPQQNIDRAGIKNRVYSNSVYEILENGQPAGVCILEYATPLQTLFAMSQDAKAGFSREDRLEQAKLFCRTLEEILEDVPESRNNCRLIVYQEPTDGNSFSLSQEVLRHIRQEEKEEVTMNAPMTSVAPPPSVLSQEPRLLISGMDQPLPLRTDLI
In words: co-IP; HEK293T cells transfected with FLAG-Sting and HA-Rab GTPases, harvested 24 h later; lysis in 20 mM Tris-HCl pH 7.4, 0.5% Nonidet-P40, 150 mM NaCl; IP with the FLAG antibody on Protein G dynabeads overnight at 4 °C; western blot. In general terms: Immunoblotting shows a protein as a band on a membrane.

These are yes or no findings as the source states them, for the method shown. Binding seen in cells or lysates may run through a third protein. Some results given as binding are weak or reduced against the parent protein; the word gives no strength. Sequences can lack the tags named with a protein.

B1: HA-Rab23 (protein, UniProt P35288 1-237)
chain: MLEEDMEVAIKMVVVGNGAVGKSSMIQRYCKGIFTKDYKKTIGVDFLERQIQVNDEDVRLMLWDTAGQEEFDAITKAYYRGAQACVLVFSTTDRESFEAISSWREKVVAEVGDIPTALVQNKIDLLDDSCIKNEEAEGLAKRLKLRFYRTSVKEDLNVSEVFKYLAEKHLQKLKQQITEDPEQTHSSSNKIGVFNASVGSHLGQNSSSLNGGDVINLRPNKQRTKRTRNPFSSCSVP
B1: the binding entry is “binds weakly”.

B2: HA-Rab9a (protein, UniProt Q9R0M6 1-201)
chain: MAGKSSLFKIILLGDGGVGKSSLMNRYVTNKFDSQLFHTIGVEFLNKDLEVDGHFVTMQIWDTAGQERFRSLRTPFYRGSDCCLLTFSVDDSQSFQNLSNWKKEFIYYADVKEPESFPFVILGNKTDIKERQVSTEEAQAWCKDNGDYPYFETSAKDSTNVAAAFEEAVRRILATEDRSEHLIQTDTVNLHRKPKPNSSCC
B2: the binding result was “binds”.

(Values after PMC9666523.)
